Among all 300,000 compounds or so, about 3,700 (1.2%) were called active. This list was built around the results that the source calls inconclusive (neither active nor inactive); the mix of calls is not that of the screen. Calls come from the whole dose curve; tested in HEK293 cells. Where the call is inconclusive, the potency comes from a doubtful curve fit.
Experiment: qHTS for Inhibitors of binding or entry into cells for Lassa Virus; note: nearly all actives have a fitted effect of over 50% in size
Details: Lassa virus pseudotype entry inhibition, cell reporter; activity change, negative = inhibition: at 37.9 µM (top of the series) unless noted
With `Cc1ccc(NS(=O)(=O)c2ccc(NC(=O)c3ccc(Br)o3)cc2)c(C)c1` the Potency was inconclusive: 25.1 µM [inhibitor, single point].
In the case of `Cc1c(Cl)cccc1NC(=S)N1CCN(C(=O)c2ccco2)CC1`, the Potency is reported as inconclusive: 14.1 µM [inhibitor, partial curve, poor fit].
With `Cc1ccc(Cn2c(CNS(=O)(=O)c3ccc(C(C)(C)C)cc3)nc3cccnc32)cc1` the Potency was inconclusive: 6.31 µM [inhibitor, single point].
In the case of `Cc1nn(CC(=O)N2CCN(C)CC2)c(=O)c2ccccc12`, the “activity change, negative = inhibition” value is reported as inactive: 0.849%.
With `CCc1ccc(NC(=O)CSc2c(C)cnc3c2c(=O)n(C)c(=O)n3C)cc1` the “activity change, negative = inhibition” value was inactive: 10.5% [at 46.1 µM].
With `C[C@H](Cc1ccc(O)c(O)c1)[C@@H](C)Cc1ccc(O)c(O)c1` the Potency was inconclusive: 14.1 µM [inhibitor, partial curve, poor fit].
With `COC(=O)C1Cc2c([nH]c3ccccc23)C2(CCN(Cc3ccccc3)CC2)N1` (stereo unspecified) the Potency was inconclusive: 11.2 µM [inhibitor, partial curve, poor fit].
In the case of `CCCC1Cc2c(sc(N)c2C#N)CO1` (stereo unspecified), the Potency is reported as inconclusive: 14.1 µM [inhibitor, partial curve, poor fit].
For `C=CCn1c(SCC(=O)Nc2sccc2C(N)=O)nc2sc(C)c(C)c2c1=O`, the Potency was inconclusive: 0.0046 µM [activator, full curve, poor fit].
For `Cn1cc(S(=O)(=O)c2ccc(Cl)cc2)c(=O)c2cc(F)c(N3CCCC3)cc21`, the “activity change, negative = inhibition” value was inactive: 13.3% [at 46.1 µM].
For `O=C(/C=C1\NC2(CCCC2)Cc2ccccc21)C(=O)N/N=C/c1ccccc1O`, the Potency was active: 14.6 µM.
For `CC(C)CCNC(=O)C1CCN(S(=O)(=O)c2ccc(-n3cnnn3)cc2)CC1`, the Potency was inconclusive: 0.891 µM [activator, full curve, poor fit].
For `COc1ccc(/C(N)=N/OC(=O)c2ccco2)cc1OC`, the “activity change, negative = inhibition” value was inactive: 17.5%.
In the case of `COc1ccc(/C=C(/NC(=O)c2ccccc2)C(=O)N/N=C/c2sccc2C)cc1`, the Potency is reported as inconclusive: 2.82 µM [inhibitor, partial curve, poor fit].
For `Cc1cc(NC(=O)NCc2ccco2)ccc1NC(=O)NCc1ccco1`, the “activity change, negative = inhibition” value was inactive: -12.2% [at 46.1 µM].
With `COc1ccccc1NC(=O)NCc1ccccc1F` the “activity change, negative = inhibition” value was inactive: 0.0241%.
In the case of `CC(C)(C)OC(=O)N1CCC(c2c(C(=O)N3CCN(c4ccc(Cl)cc4)CC3)cnn2-c2ccc(F)cc2F)CC1`, the Potency is reported as inconclusive: 2 µM [inhibitor, full curve, poor fit].
In the case of `COc1cccc(CN2CCC(n3nccc3NC(=O)CCOc3ccccc3)CC2)c1O`, the Potency is reported as inconclusive: 35.5 µM [inhibitor, single point].
With `CCN(c1ccccc1)S(=O)(=O)c1ccc(C(=O)Nc2ccccn2)cc1` the Potency was inconclusive: 25.1 µM [inhibitor, single point].
In the case of `Fc1cccc(COc2ccc(Nc3ncnc4cc(-c5ccc[nH]5)sc34)cc2Cl)c1`, the Potency is reported as inconclusive: 5.6 µM [inhibitor, full curve, poor fit].
For `C=CCn1c(NCc2ccccc2O)nc2ccccc21`, the “activity change, negative = inhibition” value was inactive: 26.4%.
With `COCc1nnc(NC(=O)c2ccc(S(=O)(=O)N3CCCc4ccccc43)cc2)o1` the Potency was inconclusive: 35.5 µM [inhibitor, single point].
In the case of `CC(C)CN(C1CCS(=O)(=O)C1)S(=O)(=O)c1ccc2ccccc2c1` (stereo unspecified), the Potency is reported as inconclusive: 1 µM [inhibitor, partial curve, poor fit].
In the case of `Cc1cc(OCC(=O)N(C)Cc2ccccc2)ccc1Cl`, the “activity change, negative = inhibition” value is reported as inactive: 28%.
For `COc1ccc(-c2cc3nc(-c4ccc(Br)cc4)cc(C(F)(F)F)n3n2)cc1`, the “activity change, negative = inhibition” value was inactive: 15.5% [at 46.1 µM].
For `CCc1c(C)sc(NC(NC(C)=O)(C(=O)OC)C(F)(F)F)c1C#N` (stereo unspecified), the Potency was inconclusive: 29.1 µM [inhibitor, single point].
For `COc1ccc(CNC(=O)C2CCN(C(=O)c3ccc(-n4ccc5ccccc54)s3)CC2)cc1`, the Potency was inconclusive: 8.91 µM [inhibitor, partial curve, poor fit].
In the case of `COc1ccc(-c2[nH]ncc2N=Nc2ccccc2)cc1`, the Potency is reported as inconclusive: 1.78 µM [inhibitor, full curve, poor fit].
In the case of `CCN1C(=O)c2ccc(C(=O)Nc3cccc(C(=O)O)c3)cc2C1=O`, the “activity change, negative = inhibition” value is reported as inactive: -6.71%.
With `COC(=O)c1nc(NC(=O)c2ccccc2Br)n[nH]1` the “activity change, negative = inhibition” value was inactive: -1.65% [at 46.1 µM].
In the case of `CCc1ccc(CNc2ccc(N3CCN(C(C)=O)CC3)cc2)cc1`, the Potency is reported as inconclusive: 11.2 µM [inhibitor, single point].
In the case of `CC(=O)N/N=C/C1=CCC2CC1C2(C)C` (stereo unspecified), the Potency is reported as inconclusive: 6.31 µM [activator, full curve, poor fit].
With `N#CC1=C(N)OC2=C(CCc3ccccc32)C1c1ccccc1Cl` (stereo unspecified) the Potency was inconclusive: 2.31 µM [inhibitor, partial curve].
In the case of `COC(=O)c1ccc2c(c1O)C(=O)c1ccccc1C2=O`, the Potency is reported as inconclusive: 18.3 µM [inhibitor, single point].
With `Cc1nn(CC(C)C)c(Cl)c1C(=O)N(C)CC(=O)Nc1c(Cl)cccc1Cl` the Potency was inconclusive: 7.94 µM [inhibitor, partial curve, poor fit].
For `COCCCNC(=O)c1cnn(-c2ccccc2Cl)c1C1CCN(C(=O)OC(C)(C)C)CC1`, the Potency was inconclusive: 4.47 µM [inhibitor, full curve].
With `COCCNC(=O)Cc1ccc(F)cc1` the Potency was inconclusive: 2.31 µM [inhibitor, partial curve, poor fit].
In the case of `N#Cc1nc(-c2ccco2)oc1N1CCN(c2ccccc2)CC1`, the Potency is reported as inconclusive: 1.26 µM [inhibitor, single point].
For `Cc1ccc(SCC(=O)N2CCN(c3ccccn3)CC2)cc1`, the “activity change, negative = inhibition” value was inactive: 10.5% [at 46.1 µM].
For `N#CCOc1ccccc1/C=C/c1nc2ccccc2c(=O)[nH]1`, the Potency was inconclusive: 14.1 µM [inhibitor, partial curve, poor fit].
With `CCCN(CCC)S(=O)(=O)c1ccc(C(=O)Nc2nc(-c3ccccc3)c(C(=O)OCC)s2)cc1` the Potency was inconclusive: 2.82 µM [inhibitor, single point].
In the case of `Cc1ccc(S(=O)(=O)N(C)C)cc1NC(=O)c1ccc(OC(F)(F)F)cc1`, the “activity change, negative = inhibition” value is reported as inactive: -0.373%.
With `COc1ccc(C(=O)OCC(=O)NC(C)(C)C)cc1[N+](=O)[O-]` the “activity change, negative = inhibition” value was inactive: 1.46%.
For `Cc1cc(C(=O)NNC(=S)NCc2ccco2)n(C)n1`, the “activity change, negative = inhibition” value was inactive: 21.8%.
In the case of `COc1ccc(S(=O)(=O)/N=C2/C=CC(=O)C(C)=C2C)cc1`, the “activity change, negative = inhibition” value is reported as inactive: -9.04%.
In the case of `O=C(NCc1cccs1)c1cc(-c2cccs2)on1`, the “activity change, negative = inhibition” value is reported as inactive: 38.2% [at 14.3 µM].
For `Nc1c(C(=O)Nc2ccc(F)cc2)sc2nc(-c3ccco3)ccc12`, the Potency was inconclusive: 29.1 µM [inhibitor, single point].
In the case of `CCCCCN(C(=O)CCC(=O)OCc1ccc(Cl)cc1Cl)c1c(N)n(CCCC)c(=O)[nH]c1=O`, the Potency is reported as inconclusive: 35.5 µM [inhibitor, single point].
In the case of `CCn1c(=O)cc(SCC(=O)N2CCN(c3cc(C)ccc3C)CC2)c2ccccc21`, the “activity change, negative = inhibition” value is reported as inactive: -24.8% [at 46.1 µM].
With `COc1ccccc1NC(=O)CCNS(=O)(=O)c1ccc2c(c1)CCCC(=O)N2` the “activity change, negative = inhibition” value was inactive: 0.79% [at 46.1 µM].
In the case of `Cc1ccc(C(=O)Nc2ccc(C(=O)/C=C/c3cccs3)cc2)cc1`, the Potency is reported as inconclusive: 7.3 µM [activator, partial curve, poor fit].
For `Cc1ccc(S(=O)(=O)N2CCCC2CNC(=O)C(=O)Nc2ccc(F)cc2F)cc1` (stereo unspecified), the Potency was inconclusive: 35.5 µM [inhibitor, single point].
In the case of `O=C(CCc1ccccc1)NC(=S)Nc1cccc(Br)c1`, the Potency is reported as inconclusive: 11.2 µM [inhibitor, partial curve, poor fit].
For `O=C(OCn1nnc2ccccc2c1=O)c1cccnc1Cl`, the “activity change, negative = inhibition” value was inactive: 8.97%.
For `COc1ccccc1CNC(=O)CCCn1c(=O)c2ccccc2n(Cc2ccccc2F)c1=O`, the “activity change, negative = inhibition” value was inactive: -7.83% [at 46.1 µM].
In the case of `Cc1cccc(Cn2c(SCc3ccc(C(=O)NC4CCCCC4)cc3)nc3cccnc32)c1`, the Potency is reported as inconclusive: 22.4 µM [inhibitor, partial curve, poor fit].
For `O=c1oc2cc(O)c(Cl)cc2c2ccccc12`, the “activity change, negative = inhibition” value was inactive: 12.2%.
In the case of `COc1cc(C(=O)NC(C)C2CC3CCC2C3)cc(OC)c1OC` (stereo unspecified), the Potency is reported as inconclusive: 2.51 µM [inhibitor, single point].
With `CCOC(=O)N1CCN(C(=O)COc2cccc3c2CCN(Cc2ccccc2C)C3=O)CC1` the Potency was inconclusive: 32.6 µM [inhibitor, single point].
With `COC(=O)c1[nH]c2cc(OC)ccc2c1NC(=O)CCN1CCN(c2cccc(C)c2C)CC1` the Potency was inconclusive: 35.5 µM [inhibitor, single point].
With `CCc1nnc(NC(=O)CCC(=O)N2CCC(Cc3ccccc3)CC2)s1` the Potency was inconclusive: 35.5 µM [inhibitor, partial curve, poor fit].
For `CSc1nc(N(C)CCO)c2sc3nc(-c4ccco4)c4c(c3c2n1)CCC4`, the “activity change, negative = inhibition” value was inactive: 13.8%.
With `CCOC(=O)c1c2c3c(cccc3[nH]c1=O)C(=O)c1ccccc1-2` the “activity change, negative = inhibition” value was inactive: -1.22%.
With `O=C(c1ccccc1)c1ccc2nc(Nc3ccccc3Cl)c3nncn3c2c1` the Potency was inconclusive: 3.16 µM [inhibitor, partial curve, poor fit].
For `CCCCN(CC)C(=O)Cn1nc(C)c2c(C)n(-c3ccccc3)nc2c1=O`, the “activity change, negative = inhibition” value was inactive: 10.3% [at 46.1 µM].
With `CCOC(=O)c1c(C)oc2nc(C)nc(NCc3cccc(OC)c3)c12` the “activity change, negative = inhibition” value was inactive: -2.09% [at 46.1 µM].
For `COc1ccc(S(=O)(=O)N2CC(C)N(C(=O)N(C)C)C2C(C)C)cc1` (stereo unspecified), the “activity change, negative = inhibition” value was inactive: 10.4%.
For `CCOCN(C(=O)CSc1nc2ccccc2[nH]1)c1c(C)cccc1CC`, the “activity change, negative = inhibition” value was inactive: -17.9% [at 46.1 µM].
For `O=C(Nc1cccc([N+](=O)[O-])c1)Nc1ccc2c(c1)CCC2`, the Potency was inconclusive: 31.6 µM [inhibitor, single point].
In the case of `Cc1cccc(C(=O)NN2C(=O)C3C(c4ccccc4)C=CC(c4ccccc4)C3C2=O)c1` (stereo unspecified), the “activity change, negative = inhibition” value is reported as inactive: -8.04%.
With `CCOC(=O)N1CCc2c(sc3c2c(=O)n(-c2ccc(Cl)cc2)c(=O)n3CC(=O)Nc2ccccc2)C1` the “activity change, negative = inhibition” value was inactive: 4.1% [at 46.1 µM].

Source: PubChem BioAssay AID540256 (National Center for Advancing Translational Sciences (NCATS), 2011)
% is set by controls: 0 for no effect and ±100 for the full control effect; potency is the fitted concentration of half-maximal effect.
